Experimental data from PMC4182580.
No constants are given. Whether binding was seen depends on the method and setting. In cells and extracts the contact can be indirect.

Chains of the proteins cited; added tags and fusions are not shown.
UniProt O60293: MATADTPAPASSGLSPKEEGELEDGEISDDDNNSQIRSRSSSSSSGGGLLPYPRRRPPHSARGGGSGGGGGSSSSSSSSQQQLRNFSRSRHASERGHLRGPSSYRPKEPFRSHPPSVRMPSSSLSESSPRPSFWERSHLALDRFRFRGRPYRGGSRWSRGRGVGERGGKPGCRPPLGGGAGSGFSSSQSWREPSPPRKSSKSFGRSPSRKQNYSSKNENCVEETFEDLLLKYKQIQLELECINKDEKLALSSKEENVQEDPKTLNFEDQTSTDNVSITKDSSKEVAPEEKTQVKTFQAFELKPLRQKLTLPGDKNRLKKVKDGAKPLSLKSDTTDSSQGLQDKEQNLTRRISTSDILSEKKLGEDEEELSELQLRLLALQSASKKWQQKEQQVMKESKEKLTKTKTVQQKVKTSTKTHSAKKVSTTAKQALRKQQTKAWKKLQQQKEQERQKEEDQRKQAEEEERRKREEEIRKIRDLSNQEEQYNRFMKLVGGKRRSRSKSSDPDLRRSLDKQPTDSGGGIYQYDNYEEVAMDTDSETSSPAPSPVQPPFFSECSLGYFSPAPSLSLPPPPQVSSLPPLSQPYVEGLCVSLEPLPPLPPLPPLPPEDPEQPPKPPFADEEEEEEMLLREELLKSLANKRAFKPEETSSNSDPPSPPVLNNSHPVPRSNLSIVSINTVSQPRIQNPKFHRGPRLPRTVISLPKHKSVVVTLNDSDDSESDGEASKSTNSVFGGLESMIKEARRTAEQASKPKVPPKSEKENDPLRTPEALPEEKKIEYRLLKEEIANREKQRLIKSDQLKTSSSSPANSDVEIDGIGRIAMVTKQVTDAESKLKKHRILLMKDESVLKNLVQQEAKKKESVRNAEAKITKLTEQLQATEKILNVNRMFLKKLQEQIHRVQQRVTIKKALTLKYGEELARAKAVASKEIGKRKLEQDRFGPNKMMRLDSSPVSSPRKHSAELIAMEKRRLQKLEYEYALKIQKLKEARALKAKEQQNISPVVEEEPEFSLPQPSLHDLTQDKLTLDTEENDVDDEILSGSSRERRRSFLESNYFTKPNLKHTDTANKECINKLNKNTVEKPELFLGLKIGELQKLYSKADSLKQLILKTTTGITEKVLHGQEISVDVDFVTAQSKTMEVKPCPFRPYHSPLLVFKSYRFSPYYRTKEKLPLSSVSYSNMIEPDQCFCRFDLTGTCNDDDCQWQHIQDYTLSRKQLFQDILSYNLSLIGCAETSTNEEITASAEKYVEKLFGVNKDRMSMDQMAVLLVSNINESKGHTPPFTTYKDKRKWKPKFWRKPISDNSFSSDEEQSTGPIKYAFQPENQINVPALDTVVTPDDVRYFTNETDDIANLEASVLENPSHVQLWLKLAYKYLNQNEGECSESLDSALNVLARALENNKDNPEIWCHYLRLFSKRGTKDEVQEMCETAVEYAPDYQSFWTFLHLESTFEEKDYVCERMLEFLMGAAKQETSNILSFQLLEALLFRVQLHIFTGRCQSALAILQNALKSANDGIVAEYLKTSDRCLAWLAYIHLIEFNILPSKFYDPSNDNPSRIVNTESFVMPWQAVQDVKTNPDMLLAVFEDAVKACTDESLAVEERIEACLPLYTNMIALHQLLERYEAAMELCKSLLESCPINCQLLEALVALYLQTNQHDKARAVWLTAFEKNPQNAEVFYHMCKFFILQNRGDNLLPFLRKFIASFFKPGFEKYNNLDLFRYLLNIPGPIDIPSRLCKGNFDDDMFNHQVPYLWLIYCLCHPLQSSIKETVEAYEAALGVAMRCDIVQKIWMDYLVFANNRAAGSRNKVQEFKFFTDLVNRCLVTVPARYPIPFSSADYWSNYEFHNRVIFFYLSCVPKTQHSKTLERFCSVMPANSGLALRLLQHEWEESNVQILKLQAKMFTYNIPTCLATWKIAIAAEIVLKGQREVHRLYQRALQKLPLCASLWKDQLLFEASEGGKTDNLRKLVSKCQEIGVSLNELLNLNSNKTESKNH

T1: ERCC1 (human (endogenous in HeLa)) (UniProt P07992)
T1 sequence: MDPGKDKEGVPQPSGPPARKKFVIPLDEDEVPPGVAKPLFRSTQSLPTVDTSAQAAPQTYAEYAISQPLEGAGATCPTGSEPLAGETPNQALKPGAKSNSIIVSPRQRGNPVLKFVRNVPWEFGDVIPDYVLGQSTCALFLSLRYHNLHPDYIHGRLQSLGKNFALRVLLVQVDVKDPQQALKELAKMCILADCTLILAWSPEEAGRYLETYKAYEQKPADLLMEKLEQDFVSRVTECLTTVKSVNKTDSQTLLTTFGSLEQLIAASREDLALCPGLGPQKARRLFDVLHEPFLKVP


What was measured:
[1] = target: T1, ERCC1 (human (endogenous in HeLa)); assay: co-IP; co-immunoprecipitation using the ERCC1 or the ZFC3H1 antibody; cells, buffer and conditions not told; no figure shown
[2] = target: ZFC3H1 (human (endogenous in HeLa)) (UniProt O60293); assay: as above

binding [1] | binding [2] | Molecule
no binding | – | ZFC3H1 (from UniProt O60293 1-1989)
– | no binding | ERCC1 (protein, UniProt P07992 1-297) MDPGKDKEGVPQPSGPPARKKFVIPLDEDEVPPGVAKPLFRSTQSLPTVDTSAQAAPQTYAEYAISQPLEGAGATCPTGSEPLAGETPNQALKPGAKSNSIIVSPRQRGNPVLKFVRNVPWEFGDVIPDYVLGQSTCALFLSLRYHNLHPDYIHGRLQSLGKNFALRVLLVQVDVKDPQQALKELAKMCILADCTLILAWSPEEAGRYLETYKAYEQKPADLLMEKLEQDFVSRVTECLTTVKSVNKTDSQTLLTTFGSLEQLIAASREDLALCPGLGPQKARRLFDVLHEPFLKVP
